Data as given in PubChem BioAssay AID652243 (Drosophila RNAi Screening Center, 2013)
The deposit covers about 24,000 reagents; shown is a random part of those with a known target gene and a result. Over the whole deposit, 246 (1%) are marked active. 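Plates not normalised; calls are printed but the firefly/Renilla ratio behind them is not deposited; fold cut for lowering reported inconsistently.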 Raw values are not corrected between plates. Reagents against one gene are numbered here. No sequences are given here. Not stated in the record: the amount of reagent.

- Screen: 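Fly regulators of androgen-dependent reporter output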 (primary screen)
- System: Drosophila S2R+ cells
- Reagents: long dsRNA against Drosophila genes
- Duration: 72 h (48 h, then 24 h hormone)
- Challenge: synthetic androgen R1881 at 10 nM for 24 h
- Detection: 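Firefly light from an androgen-responsive reporter and Renilla control light per well, raw and unnormalised, for each of two replicates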
- Direction: firefly reporter light: higher = more light from androgen-responsive reporter; Renilla control light: higher = more constitutive control signal (cell number, transfection)
- Hit rule: 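Hit when the log firefly-to-Renilla ratio dropped or increased by a fixed fold versus the mean of GFP or LacZ controls across duplicate plates; lowering cut given as 1.5 and as 3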
- Meaning of the calls: active = hit: reporter lowered or raised; inactive = no hit

"firefly reporter light, replicate 1","firefly reporter light, replicate 2","Renilla control light, replicate 1","Renilla control light, replicate 2",outcome,gene,reagent
6.53e5,5.62e5,7.49e5,4.75e5,inactive,Larp4B,1
4.55e5,3.90e5,1.14e6,1.14e6,inactive,Larp4B,2
1.90e5,2.22e5,7.50e5,5.71e5,inactive,CG14621,1
4.03e5,3.57e5,6.86e5,5.66e5,inactive,CG14621,2
1.12e5,30507,1.21e6,3.56e5,inactive,CheA75a,1
2.83e5,3.72e5,4.63e5,5.38e5,inactive,Cdep,1
45299,86115,3.05e5,3.67e5,inactive,Cdep,2
66526,72483,1.57e6,1.45e6,inactive,Cdep,3
1.38e6,7.22e5,3.42e6,2.27e6,inactive,Cdep,4
8.35e5,5.67e5,2.27e6,1.73e6,inactive,CG3294,1
2.52e5,2.88e5,6.56e5,7.21e5,inactive,CG3294,2
3.17e5,2.47e5,1.62e6,1.13e6,inactive,hig,1
3.30e5,6.31e5,8.79e5,1.32e6,inactive,hig,2
4.01e5,7.60e5,1.17e6,1.82e6,inactive,hig,3
6.95e5,4.46e5,8.14e5,4.11e5,inactive,hig,4
7.85e5,7.56e5,1.22e6,1.22e6,inactive,CG8237,1
5.22e5,4.98e5,6.85e5,5.67e5,inactive,CG8237,2
1.21e6,1.25e6,1.64e6,2.04e6,inactive,snRNA:U2:34ABc,1
1.86e5,2.22e5,3.04e6,2.84e6,inactive,CG14551,1

Targets above whose target name starts with L or l:
"firefly reporter light, replicate 1","firefly reporter light, replicate 2","Renilla control light, replicate 1","Renilla control light, replicate 2",outcome,gene,reagent
6.53e5,5.62e5,7.49e5,4.75e5,inactive,Larp4B,1
4.55e5,3.90e5,1.14e6,1.14e6,inactive,Larp4B,2

Additional entries:
"firefly reporter light, replicate 1","firefly reporter light, replicate 2","Renilla control light, replicate 1","Renilla control light, replicate 2",outcome,gene,reagent
2.07e5,1.63e5,1.48e6,1.17e6,inactive,LUBEL,1
6.59e5,5.42e5,2.00e6,1.50e6,inactive,LUBEL,2
4.99e5,4.08e5,2.58e6,2.05e6,inactive,CG4968,1
4.83e5,4.68e5,1.27e6,1.21e6,inactive,CG4968,2
8.77e5,6.71e5,2.49e6,1.57e6,inactive,l(2)k09848,1
6.08e5,8.10e5,1.70e6,1.66e6,inactive,pncr003:2L (retired record),1
9.26e5,6.83e5,1.84e6,1.31e6,inactive,pncr003:2L (retired record),2
6.92e5,5.51e5,1.61e6,2.27e6,inactive,pncr003:2L (retired record),3
3.20e5,2.10e5,3.50e6,2.95e6,inactive,CycD,1
2.49e5,2.56e5,4.91e5,4.71e5,inactive,CycD,2
,,,,inactive,CycD,3
2.14e5,1.41e5,1.85e6,1.78e6,inactive,CG18081,1
7.02e5,7.46e5,7.94e5,8.50e5,inactive,CG18081,2
8.70e5,1.04e6,2.72e6,2.30e6,inactive,CG4291,1
6.57e5,1.15e6,9.73e5,1.67e6,inactive,CG4291,2
92134,82388,7.84e5,4.67e5,inactive,CG3342,1
7.31e5,4.47e5,1.18e6,1.08e6,inactive,CG3342,2
8.39e5,1.14e6,9.11e5,1.19e6,inactive,drk,1
5.84e5,4.50e5,1.53e6,9.65e5,inactive,drk,2
56265,33108,2.53e5,2.30e5,inactive,rgn,1
1.11e5,1.34e5,1.41e6,1.50e6,inactive,cwo,1
2.69e5,3.70e5,8.02e5,5.09e5,inactive,cwo,2
8.99e5,9.71e5,4.38e6,1.84e6,inactive,papi,1
1.22e5,1.09e5,6.29e5,5.26e5,inactive,Nprl2,1
70044,1.02e5,1.55e5,1.00e5,inactive,fau,1
1.33e5,1.13e5,1.85e5,1.67e5,inactive,fau,2
65940,87875,7.30e5,1.09e6,inactive,fau,3
1.05e5,1.44e5,1.91e6,1.78e6,inactive,fau,4
3.13e5,3.22e5,2.00e6,2.37e6,inactive,fau,5
6.54e5,5.50e5,5.84e5,4.16e5,inactive,fau,6
2.73e5,2.24e5,5.16e5,6.40e5,inactive,fau,7
1.33e5,1.33e5,1.63e5,1.90e5,inactive,CG13784,1
2.64e5,4.53e5,9.30e5,8.06e5,inactive,WDR79,1
2.49e5,1.59e5,1.95e6,1.01e6,inactive,nompA,1
7.25e5,1.06e6,1.21e6,1.17e6,inactive,ERp60,1
5.73e5,2.68e5,6.12e5,4.47e5,inactive,ERp60,2
84089,92929,8.18e5,6.40e5,inactive,PpD6,1
7.78e5,8.76e5,1.66e6,1.43e6,inactive,PpD6,2
2.65e5,2.11e5,1.57e6,1.24e6,inactive,atos,1
